Source: paper PMC11312917
Results are given in words; binding and its absence hold for the method and conditions named. A result given as binding can be weak or reduced; the word gives no strength. Where a sequence is shown, tags or fusion partners need not be part of it. For some assays here: In cells and extracts the contact can be indirect.

T1: myc-tagged isolated PDZ domain of Pdlim5 (human) (UniProt Q96HC4)
T1 sequence: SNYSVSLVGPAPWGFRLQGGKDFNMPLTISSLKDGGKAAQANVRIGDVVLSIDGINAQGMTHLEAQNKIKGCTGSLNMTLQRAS

T2: isolated PDZ domain of Pdlim5 fused to a Golgi localization sequence (human) (UniProt Q96HC4)
T2 sequence: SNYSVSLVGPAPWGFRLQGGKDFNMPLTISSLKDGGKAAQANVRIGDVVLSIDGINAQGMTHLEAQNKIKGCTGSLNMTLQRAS


What was measured:
[1] = target: T1, myc-tagged isolated PDZ domain of Pdlim5 (human); test: co-IP; HEK-293 cells co-expressing myc-PDZ and flag-LIM; NP40 lysis buffer (HEPES, KCl, MgCl2, glycerol); pull-down of myc-PDZ, Protein-A/G Dynabeads, 4 °C; immunoblot for flag-LIM; triplicate, band intensities quantified
[2] = target: T2, isolated PDZ domain of Pdlim5 fused to a Golgi localization sequence (human); test: Golgi co-relocalization assay (immunofluorescence, confocal microscopy); HT-22 cells co-transfected with one domain fused to the Golgi localization sequence (GLS) of mTOR and the partner domain without GLS; fixed 24 h after transfection; Pearson's correlation of red and green channels at the Golgi
[3] = target: isolated LIM domain of Pdlim5 fused to a Golgi localization sequence (human); test: as above

binding [2] | binding [3] | Molecule | further results
 |  | flag-tagged isolated LIM domain of Pdlim5 (human) (domain or fragment) | binding [1]: binds
binds |  | isolated LIM domain of Pdlim5 (not fused to GLS) (human) (domain or fragment) | 
no binding |  | isolated LIM domain of Pdlim5 with 4x point mutation (human) (domain or fragment) | 
 | binds | isolated PDZ domain of Pdlim5 (not fused to GLS) (domain or fragment, UniProt Q96HC4 2-85) SNYSVSLVGPAPWGFRLQGGKDFNMPLTISSLKDGGKAAQANVRIGDVVLSIDGINAQGMTHLEAQNKIKGCTGSLNMTLQRAS | 
 | no binding | isolated PDZ domain of Pdlim5 with 4x point mutation (domain or fragment, UniProt Q96HC4 2-85) SNYSVSLVGPAGWGFALQGGKDFNMPLTISSLGDGGKAAQANVRIGDVVLSIDGINAQGMTHLEAQNKIAGCTGSLNMTLQRAS | 
